Source: patent US20080108645A1, “Dihydrotetrabenazines And Pharmaceutical Compositions Containing Them” (CAMBRIDGE LABORATORIES, (IRELAND), LTD., priority 2004, published 2008)
Some entries share one result that the patent states for a list of compounds.

Biological target: 5-HT1D/1B receptors
Test: 5-HT1D/1B binding assay, [N-methyl 3H] GR-125743, rat forebrain P2 membranes
Conditions: read-out: IC50, displacement of [3H] [N-methyl] GR-125743 binding
Protocol: The ability of Compound B and Compound C to bind to 5-HT1D/1B receptors was tested using an assay based on the one described by Millan, M J et al. (2002) Pharmacol. Biochem. Behav. […] [N-methyl ^3H] GR-125743 was used as the radioligand for both 5-HT1D and 5-HT1B receptors. Adult SD rat forebrain P2 membranes (Chazot et al., 1993) were used for the assay. The assay buffer used was 50 mM Tris-HCl pH 7.7 at room temperature containing 4 mM calcium chloride, 0.1% ascorbic acid and 10 μM pargyline. 5-HT (10 μM) was used to define non-specific binding. Incubation with 1 nM [^3H] GR-125743 was carried out for 1 hour at room temperature, and the reaction was terminated by rapid filtration using a Brandel Harvester through GF/B filters pre-soaked in 0.1% polyethyleneimine, followed by three washes with ice-cold buffer (supplemented with 0.1% BSA). A dose range of 10^−10-10^−4M was utilised. The resultant competition curves were analysed using the GraphPad Prism 4 package.

Row | SMILES | IC50
1 | COc1cc2c(cc1OC)[C@H]1C[C@H](O)[C@@H](CC(C)C)CN1CC2 (single isomer, unassigned) [Isomer B, 3,11b-cis-dihydrotetrabenazine] | > 100 µM
2 | COc1cc2c(cc1OC)[C@H]1C[C@@H](O)[C@@H](CC(C)C)CN1CC2 (single isomer, unassigned) [Isomer C, 3,11b-cis-dihydrotetrabenazine] | > 100 µM
